Test results published in patent US11779592B2, “Inhibition of NGLY1 for the treatment of cancer” (University of North Texas Health Science Center, priority 2017, dated 2023).
For at least one compound, name, drawing or mass did not settle the structure.

Key:
UACC257 cells = assay: Cell viability test (MTT) in UACC257 cells; format: cell-based, human; conditions: 20 μM, 72-hour treatment
Protocol: (§1) Despite the frequent failure of chemotherapy in patients with melanoma, chemotherapy remains a frontline approach for treatment, especially in many patients who cannot afford immunotherapy or targeted therapy. […] Identifying novel approaches to enhance the efficacy of chemotherapy and targeted therapy agents in melanoma will greatly benefit many cancer patients. […] The IC50 of each drug treatment in each cell clone was calculated using CalcuSyn 2.0.
(§2) The dose effect of dox-induced expression of NGLY1 shRNA in each cell clone was also determined. The IC50 of each drug treatment in each cell clone was calculated using CalcuSyn 2.0. To determine the interaction between NGLY1 knockdown and each anticancer agent, cells were exposed to four-dose combinations of dox and an anticancer agent at a fixed dose ratio. The combination index (CI) value was calculated using CalcuSyn 2.0. CI values of less than 1 are considered a synergistic interaction. […]
(§3) Cells were seeded into 96-well plates (2,500-5,000 cells/well, depending on cell types), incubated overnight, and treated as indicated. […] Reduced MTT was solubilized in DMSO for determination of absorbance at 570 nm. Absorbance of reduced MTS was directly measured in the reaction medium at 490 nm. The relative cell viability in each treatment condition was calculated based on absorbance values.

MALME3M cells = conditions: BRAF V600E mutation (Yang, et al., 2010); cited from earlier work
SK-MEL-2 cells = assay: Cell viability test (MTT) in SK-MEL-2 cells; format: cell-based, human; conditions: NRAS Q61R mutation, FIG. 5F
Protocol: as §1, §2, §3

SMILES | growth and cell death (UACC257 cells) | sensitivity of the cells to the drug (MALME3M cells) | sensitivity of the cells to the drug (SK-MEL-2 cells)
CN(C)/N=N/c1[nH]cnc1C(N)=O [dacarbazine] | moderate growth inhibition without increase of cell death |  | 
CCCS(=O)(=O)Nc1ccc(F)c(C(=O)c2c[nH]c3ncc(-c4ccc(Cl)cc4)cc23)c1F [vemurafenib, reference compound] |  | high sensitivity | resistant
